# Laboratory results as given in PubChem BioAssay AID2685 (National Center for Advancing Translational Sciences (NCATS), 2010).
# Screen size: about 320,000 compounds; about 2,100 (0.66%) were called active. The shares of active, inactive and inconclusive entries below differ from those in the screen. Calls come from the whole dose curve; as a rule, active = well fitted inhibition curve with a large enough effect in the signal ratio, with a control signal flat (not every such curve was filed as active); inconclusive = small, poorly fitted or top-dose-only effect, or effect the other way, or a change in a side signal; inactive = flat fitted curve, though single readings scatter; the % refers to the signal ratio. Where the call is inconclusive, the potency comes from a doubtful curve fit.
# Test: qHTS Assay for Lipid Storage Modulators in Drosophila S3 Cells
# Settings: BODIPY lipid droplet fluorescence, 18-24 h, cells fed with added oleic acid; lipid storage change, negative = inhibition: at 46.1 µM (top of the series) unless noted
# Summary of the method: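 Drosophila S3 cells got compounds at several concentrations plus oleic acid (400 uM solution). Laser-scanning cytometry with 488 nm excitation read lipid droplets at 500-530 nm and cells at 575-640 nm. Percent activity was relative to 20 uM Triacsin C.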
# % is set by controls: 0 for no effect and ±100 for the full control effect; potency is the fitted concentration of half-maximal effect.
SMILES,"lipid storage change, negative = inhibition",Potency
COC(=O)c1cccc(NC(=O)CSc2nc(=O)cc(N)n2-c2ccccc2)c1,inconclusive: -20.6%,–
COc1ccc(Cl)cc1NC(=O)CSc1nnc(COc2ccccc2)n1C,–,"inconclusive: 1.46 µM [activator, partial curve]"
O=S1(=O)NC2CCCCCN2c2ccc(F)cc21 (stereo not given),–,"inconclusive: 0.461 µM [falling, partial curve, poor fit]"
C=CCc1cccc2cc(C(=O)OCC)c(=O)oc12,inconclusive: 21.3%,–
c1ccc2c(-c3nn4nnnc4c4ccccc34)cccc2c1,–,"inconclusive: 29.1 µM [rising, single point]"
O=C(CN1CCN(c2ccccc2)CC1)Nc1ccccc1Cl,inconclusive: -58.5% [cytotoxic] [at 0.00295 µM],–
CCN1C(=O)[C@@H]2[C@@H](c3ccc(-c4ccc(F)cc4)cc3)N3CCC[C@@]3(C(=O)OC)[C@@H]2C1=O,inactive,–
CN(Cc1ccccc1)S(=O)(=O)c1ccc(Cl)c(C(=O)OCC(N)=O)c1,inconclusive: 5.32%,–
COc1ccc(C(C)NC(=O)c2ccccc2Br)cc1OC (stereo not given),inconclusive: -8.08%,–
CCC(CC)C(=O)Nc1cccc(C(=O)NCCc2ccccc2)c1,inconclusive: 28.3%,–
CC1=C(C)CC(C(=O)NC(C)CCc2ccccc2)C(C(=O)O)C1 (stereo not given),inconclusive: 166%,–
O=C(CNc1ccc2c(c1)OCO2)N/N=C\c1cn(Cc2ccc(F)cc2)c2ccccc12,–,"inconclusive: 29.1 µM [falling, single point]"
CCc1ccc(N=CC23c4ccccc4C(c4ccccc42)C2C(=O)N(c4ccc(OC)cc4)C(=O)C23)cc1 (stereo not given),inconclusive: -35.3%,–
CCNc1nc(C)nc2c1oc1ccccc12,–,"inconclusive: 9.2 µM [activator, partial curve]"
COc1ccc(CCc2nc(C)ccc2O)cc1,inconclusive: 2.36%,–
CCOc1ccccc1OCCCC(=O)N1CCN(S(=O)(=O)c2cccc(F)c2)CC1,–,"inconclusive: 18.4 µM [activator, partial curve]"
Cc1cccc(N2CCN(C(=O)N3CCOCC3)CC2)c1C,inconclusive: 14.3%,–
O=C(NCc1ccncc1)C1CCC(=O)N(CCc2ccc(Cl)cc2)C1 (stereo not given),inconclusive: 3.42%,–
CCOc1ccc(OCC)c(NC(=O)c2nnn(CC(=O)Nc3cc(C)cc(C)c3)c2N)c1,inconclusive: -67.6%,–
Cc1ccccc1NC(=O)Cc1nnc(SCC(=O)Nc2ccccc2)n1C,inconclusive: 3.35%,–
C=CCOc1ccc(/C=N/NC(=O)C(C)Sc2ccccn2)cc1OC (stereo not given),inconclusive: 21.1%,–
Oc1ccc(O)c2c1C1c3ccccc3C2c2ccccc21,inconclusive: 364%,–
COc1cccc(NC(=O)C2CC2)c1,inconclusive: -15.4%,–
O=C(O)/C=C\c1cc2c(cc1[N+](=O)[O-])OCO2,inconclusive: -2.55%,–
COc1ccc2c(c1)c(C(C)=O)c(C)n2CCc1ccc(OC)c(OC)c1,inconclusive: -46.6%,–

SMILES,"lipid storage change, negative = inhibition",Potency
CC(=O)Cn1c(=O)c2c(nc3n2CCCN3Cc2ccccc2)n(C)c1=O,–,"inconclusive: 0.13 µM [rising, full curve, poor fit]"
CCCc1cc(=O)[nH]c(SCC(=O)NCCCC(=O)OCC)n1,–,"inconclusive: 2.06 µM [activator, full curve, poor fit]"
CCOC(=O)c1ccc(Nc2nc(N)c3cc(OC)c(OC)cc3n2)cc1,inconclusive: -42%,–
CCOC(=O)C1CCCN(S(=O)(=O)c2cc3c(cc2Cl)NC(=O)CO3)C1 (stereo not given),inconclusive: -17.8%,–
Cc1cc(=O)[nH]c(SCc2nc3ccccc3n2Cc2ccccc2)n1,inconclusive: 3.45%,–
COc1ccc(C(=O)N2CCCC(c3nc(-c4cccs4)no3)C2)cc1OC (stereo not given),inconclusive: 19.7%,–
CC(=O)/C=C(\C)Nc1ccccc1O,inconclusive: -9.03%,–
CC1CCN(CC(=O)Nc2nccs2)CC1,–,"inconclusive: 0.259 µM [activator, partial curve, poor fit]"
CC(OC(=O)CNC(=O)C12CC3CC(CC(C3)C1)C2)C(=O)Nc1ccc(N2CCOCC2)cc1 (stereo not given),–,"inconclusive: 4.61 µM [falling, full curve, poor fit]"
O=C(Nc1ccc2c(c1)OCO2)C1CCN(C(=O)c2ccc(Cl)cc2)CC1,inconclusive: 13.2%,–
Cc1cccc(Nc2c3c(nc4ccccc24)CCC3)c1,inconclusive: -16.7%,–
CC(=O)N1N=C(c2cccs2)CC1c1cccc([N+](=O)[O-])c1 (stereo not given),inconclusive: 3.2%,–
CCCN(CCC)CCCNC(=O)c1cc2c(=O)n(CC)c3ccccc3c2s1,inconclusive: 15.8%,–
CCOc1ccc(CCNS(=O)(=O)c2ccc3c(c2)NC(=O)CC(=O)N3)cc1OCC,inconclusive: 5.32%,–
CNC(=O)c1c(NC(=O)c2ccco2)sc2c1CCCC2,–,"inconclusive: 14.6 µM [falling, partial curve, poor fit]"
CCOC(=O)C1CCN(C(=O)C(C)c2ccc([N+](=O)[O-])cc2)CC1 (stereo not given),inconclusive: 5.68%,–
Cc1ccccc1-n1nc(C)c(N=O)c1N,inconclusive: -22.5%,–
Cc1ccc(Nc2cc(=O)[nH]c(=O)[nH]2)cc1C,inconclusive: -26.6%,–
O=S(=O)(c1ccccc1)N1N=C(c2cccs2)CC1c1ccc(Br)cc1 (stereo not given),inconclusive: -5.54%,–
CC(Sc1nc(-c2ccco2)nc2c1c(=O)n(C)c(=O)n2C)C(=O)O (stereo not given),inconclusive: 38.7%,–
Cc1ccc[n+](C(C)C(=O)c2ccc(-c3ccccc3)cc2)c1 (stereo not given),inconclusive: -29.8%,–
Cc1cc(N/N=C/c2ccc(O)cc2O)nc(-n2nc(C)cc2C)n1,inconclusive: -10.4%,–
Cn1c2ccccc2c2cnn(CC(=O)O)c(=O)c21,inconclusive: 31.8%,–
Cc1noc(C)c1CSCC(=O)Nc1ccc(S(=O)(=O)C(F)F)cc1,inconclusive: -2.87%,–
COc1ccc(C2NC(=S)N(c3ccccc3)C(C)=C2C(=O)Nc2ccccc2)cc1 (stereo not given),–,"inconclusive: 29.1 µM [activator, single point]"

# Ordered by formula weight (largest number first): part of the list above.
SMILES,"lipid storage change, negative = inhibition",Potency
COc1ccc(C(=O)N2CCCC(c3nc(-c4cccs4)no3)C2)cc1OC (stereo not given),inconclusive: 19.7%,–
Cc1cc(=O)[nH]c(SCc2nc3ccccc3n2Cc2ccccc2)n1,inconclusive: 3.45%,–
Cc1cccc(N2CCN(C(=O)N3CCOCC3)CC2)c1C,inconclusive: 14.3%,–
c1ccc2c(-c3nn4nnnc4c4ccccc34)cccc2c1,–,"inconclusive: 29.1 µM [rising, single point]"
